{"source": "PubChem BioAssay AID493014", "about": "(National Center for Advancing Translational Sciences (NCATS), 2011)", "note": "Screen size: about 340,000 compounds; about 170 (0.05%) were called active. The inconclusive results got no clear call from the source; some entries with a clear call stand among them for comparison. The call rests on the fitted dose curve; in most records, active means well fitted inhibition curve with a large enough effect in the signal ratio, with a control signal flat (not every such curve was filed as active); inconclusive means small, poorly fitted or top-dose-only effect, or effect the other way, or a change in a side signal; inactive means flat fitted curve, though single readings scatter; the % refers to the signal ratio. Where the call is inconclusive, the potency comes from a doubtful curve fit. Potency means the concentration at half of the fitted maximal effect."}
{"assay": "qHTS Assay to Find Inhibitors of Chronic Active B-Cell Receptor Signaling;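 on activity change, negative = inhibition: plate controls were basal doxycycline-induced cells for no effect and cells given 10 µM MG132 for full effect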", "conditions": "ABC-DLBCL IkBa-CBG/CBR reporter, luminescence ratio (green luciferase fused to IkBa over red control in TMD8 lymphoma cells), 4 h; activity change, negative = inhibition: at 46.1 µM (top of the series)", "outline": "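Doxycycline induced both beetle luciferases in TMD8 lymphoma cells; IKK-driven degradation limits the IkappaBalpha-fused green signal, while red luminescence normalises for cell number and nonspecific effects. Compounds tested up to 46 uM, 4 hrs.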"}
{"smiles": "CC(CCc1ccccc1)NC(=O)C1CCCN(C(=O)c2cc3sccc3n2C)C1", "note": "(configuration not stated)", "activity change, negative = inhibition": "inconclusive: -5.03%"}
{"smiles": "O=C(Nc1ccc(Cl)cc1)N1CCSCC1", "Potency": "inconclusive: 4.61 µM [rising, single point]"}
{"smiles": "Cc1ccc(S(=O)(=O)Nc2ccc(Cl)cc2C(=O)c2ccc(F)cc2)cc1", "activity change, negative = inhibition": "inconclusive: 16.9%"}
{"smiles": "O=C(COc1ccc2c(-c3ccccc3)cc(=O)oc2c1)Nc1ccc(CN2CCOCC2)cc1", "activity change, negative = inhibition": "inconclusive: 5.31%"}
{"smiles": "Cc1cc(N2CCCCC2)nc2ccc(NC(=O)c3cccc(Cl)c3)cc12", "activity change, negative = inhibition": "inconclusive: 19.2%"}
{"smiles": "O=C(Nc1ccc2c(c1)OCCO2)c1cnccn1", "Potency": "inconclusive: 29.1 µM [falling, single point]"}
{"smiles": "Cc1cccc(C(=O)Nc2nc(C)c(C(=O)Nc3ccc4c(c3)CCC4)s2)c1", "activity change, negative = inhibition": "inconclusive: 272%"}
{"smiles": "CCC(=C(c1ccc(OC)cc1)c1ccc(OC)cc1)c1cn(CC(O)CN(CCO)CCO)c2ccccc12", "note": "(configuration not stated)", "Potency": "inconclusive: 22.4 µM [falling, single point]"}
{"smiles": "Cn1nc(-c2ccc(C(=O)NCCO)cc2)c2ccccc2c1=O", "activity change, negative = inhibition": "inactive"}
{"smiles": "O=C(Nc1ccc(N2CCN(Cc3ccccc3F)CC2)cc1)c1ccc([N+](=O)[O-])o1", "Potency": "inconclusive: 1.41 µM [falling, partial curve, poor fit]"}
{"smiles": "CC(C)CCSc1cc(NCCO)c([N+](=O)[O-])c2nonc12", "activity change, negative = inhibition": "inconclusive: -4.78%"}
{"smiles": "O=C1CCCN1CCCN1CC(C(=O)N(CCO)Cc2ccccc2)CCC1=O", "note": "(configuration not stated)", "activity change, negative = inhibition": "inconclusive: 0.0804%"}
{"smiles": "C=CCN1C(=O)C(Cc2ccccc2Cl)SC1=Nc1ccc(C(=O)O)cc1", "note": "(configuration not stated)", "activity change, negative = inhibition": "inconclusive: 8.72%"}
{"smiles": "O=C(COC(=O)/C=C/c1ccc(F)cc1)NCc1ccco1", "activity change, negative = inhibition": "inactive"}
{"smiles": "CCOc1ccc(CCNC(=O)C2CC(C)=CCC2C(=O)O)cc1OCC", "note": "(configuration not stated)", "activity change, negative = inhibition": "inconclusive: -2.64%"}
{"smiles": "NC(=O)c1ccc(NC(=O)COC(=O)CC23CC4CC(CC(Br)(C4)C2)C3)cc1", "activity change, negative = inhibition": "inconclusive: -0.594%"}
{"smiles": "c1ccc(-c2ccc(OCCN3CCOCC3)cc2)cc1", "activity change, negative = inhibition": "inconclusive: 5%"}
{"smiles": "CCc1ccc(NC(=O)C(=S)NC2CCCCC2)cc1", "activity change, negative = inhibition": "inconclusive: 8.37%"}
{"smiles": "CCC(=O)NC1=C(Nc2ccc(N)cc2)C(=O)c2ccccc2C1=O", "activity change, negative = inhibition": "inactive"}
{"smiles": "CCOC(=O)c1c(NC(=O)C(Sc2ccccc2)c2ccccc2)sc(C(=O)N(C)C)c1C", "note": "(configuration not stated)", "activity change, negative = inhibition": "inconclusive: -2.86%"}
{"smiles": "CCN(CC(=O)NCc1ccc(Cl)cc1)C(=O)CSc1ccc(Br)cc1", "activity change, negative = inhibition": "inconclusive: -1.34%"}
{"smiles": "O=C(NCc1ccccc1Cl)c1ccc2nc[nH]c2c1", "Potency": "inconclusive: 20.6 µM [falling, partial curve]"}
